Laboratory results from the supplement of paper PMC12823440, “Inhibitors supercharge kinase turnover through native proteolytic circuits” (Nature, 2025).
Counter-ions that a name gives are not always drawn. The list shows a part of the results. The calls rarely recur for the same compound in another form.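 Kinases, fused to nanoluciferase, were expressed in K562 cells; luminescence was measured every 4 h from 2 to 18 h as percent of control (DMSO = 100%, positive control = 0%). A time point is decreased if signal falls significantly (2 sigma). Hits were called by the authors by a rule that is not shown; the count of time points alone does not decide it.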

Amino acid sequences for entries named in this document (tags omitted). A change or cut given only in a name is not applied to a line headed by its entry.
UniProt P29317, whole entry: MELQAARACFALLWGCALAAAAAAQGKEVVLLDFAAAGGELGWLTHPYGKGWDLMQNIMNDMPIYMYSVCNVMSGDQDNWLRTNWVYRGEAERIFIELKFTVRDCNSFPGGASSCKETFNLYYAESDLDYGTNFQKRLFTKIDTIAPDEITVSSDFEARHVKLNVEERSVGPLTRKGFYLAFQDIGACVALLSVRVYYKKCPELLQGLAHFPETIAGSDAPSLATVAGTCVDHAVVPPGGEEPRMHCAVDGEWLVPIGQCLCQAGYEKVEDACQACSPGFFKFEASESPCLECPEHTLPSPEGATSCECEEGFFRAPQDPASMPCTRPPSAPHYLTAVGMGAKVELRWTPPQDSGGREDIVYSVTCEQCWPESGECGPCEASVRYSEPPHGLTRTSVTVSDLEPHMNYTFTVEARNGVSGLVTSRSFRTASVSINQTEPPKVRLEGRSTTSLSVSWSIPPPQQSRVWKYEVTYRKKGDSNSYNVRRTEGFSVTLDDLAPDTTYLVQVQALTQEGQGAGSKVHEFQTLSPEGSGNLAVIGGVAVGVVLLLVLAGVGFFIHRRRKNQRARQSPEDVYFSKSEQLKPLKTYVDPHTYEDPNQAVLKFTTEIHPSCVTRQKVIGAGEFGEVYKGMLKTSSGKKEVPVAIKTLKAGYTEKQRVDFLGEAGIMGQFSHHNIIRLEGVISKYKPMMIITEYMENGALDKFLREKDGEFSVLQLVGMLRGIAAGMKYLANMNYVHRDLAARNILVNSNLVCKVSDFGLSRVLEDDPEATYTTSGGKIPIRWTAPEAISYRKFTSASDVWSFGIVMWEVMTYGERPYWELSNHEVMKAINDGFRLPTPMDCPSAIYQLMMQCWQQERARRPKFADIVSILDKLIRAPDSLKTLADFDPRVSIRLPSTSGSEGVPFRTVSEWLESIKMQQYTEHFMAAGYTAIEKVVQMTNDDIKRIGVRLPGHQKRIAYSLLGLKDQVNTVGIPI
UniProt O75460: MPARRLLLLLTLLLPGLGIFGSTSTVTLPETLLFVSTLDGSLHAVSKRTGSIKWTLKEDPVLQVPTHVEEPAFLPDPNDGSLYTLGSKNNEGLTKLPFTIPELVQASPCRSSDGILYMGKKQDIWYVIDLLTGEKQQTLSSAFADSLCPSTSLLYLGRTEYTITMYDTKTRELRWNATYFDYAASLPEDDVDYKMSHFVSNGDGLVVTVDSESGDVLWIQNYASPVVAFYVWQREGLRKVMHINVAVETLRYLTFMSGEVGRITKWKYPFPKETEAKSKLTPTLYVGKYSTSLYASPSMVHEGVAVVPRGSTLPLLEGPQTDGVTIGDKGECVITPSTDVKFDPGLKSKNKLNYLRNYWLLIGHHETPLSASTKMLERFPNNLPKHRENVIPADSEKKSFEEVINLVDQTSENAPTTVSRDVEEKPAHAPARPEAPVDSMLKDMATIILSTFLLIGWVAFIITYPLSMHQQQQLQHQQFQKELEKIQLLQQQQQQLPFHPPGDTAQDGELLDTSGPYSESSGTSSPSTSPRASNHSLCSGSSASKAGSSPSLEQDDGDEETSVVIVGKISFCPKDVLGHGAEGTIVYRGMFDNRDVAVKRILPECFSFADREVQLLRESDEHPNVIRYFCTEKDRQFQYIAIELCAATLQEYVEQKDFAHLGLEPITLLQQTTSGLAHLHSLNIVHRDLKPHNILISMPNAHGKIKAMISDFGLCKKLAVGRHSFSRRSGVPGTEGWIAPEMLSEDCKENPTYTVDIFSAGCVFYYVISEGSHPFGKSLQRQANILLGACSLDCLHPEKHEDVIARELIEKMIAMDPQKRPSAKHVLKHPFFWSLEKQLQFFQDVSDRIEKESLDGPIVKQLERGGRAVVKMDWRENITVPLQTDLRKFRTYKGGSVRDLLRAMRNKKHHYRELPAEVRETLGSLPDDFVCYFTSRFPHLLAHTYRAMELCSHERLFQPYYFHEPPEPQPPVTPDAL
UniProt P21802, whole entry, looked up: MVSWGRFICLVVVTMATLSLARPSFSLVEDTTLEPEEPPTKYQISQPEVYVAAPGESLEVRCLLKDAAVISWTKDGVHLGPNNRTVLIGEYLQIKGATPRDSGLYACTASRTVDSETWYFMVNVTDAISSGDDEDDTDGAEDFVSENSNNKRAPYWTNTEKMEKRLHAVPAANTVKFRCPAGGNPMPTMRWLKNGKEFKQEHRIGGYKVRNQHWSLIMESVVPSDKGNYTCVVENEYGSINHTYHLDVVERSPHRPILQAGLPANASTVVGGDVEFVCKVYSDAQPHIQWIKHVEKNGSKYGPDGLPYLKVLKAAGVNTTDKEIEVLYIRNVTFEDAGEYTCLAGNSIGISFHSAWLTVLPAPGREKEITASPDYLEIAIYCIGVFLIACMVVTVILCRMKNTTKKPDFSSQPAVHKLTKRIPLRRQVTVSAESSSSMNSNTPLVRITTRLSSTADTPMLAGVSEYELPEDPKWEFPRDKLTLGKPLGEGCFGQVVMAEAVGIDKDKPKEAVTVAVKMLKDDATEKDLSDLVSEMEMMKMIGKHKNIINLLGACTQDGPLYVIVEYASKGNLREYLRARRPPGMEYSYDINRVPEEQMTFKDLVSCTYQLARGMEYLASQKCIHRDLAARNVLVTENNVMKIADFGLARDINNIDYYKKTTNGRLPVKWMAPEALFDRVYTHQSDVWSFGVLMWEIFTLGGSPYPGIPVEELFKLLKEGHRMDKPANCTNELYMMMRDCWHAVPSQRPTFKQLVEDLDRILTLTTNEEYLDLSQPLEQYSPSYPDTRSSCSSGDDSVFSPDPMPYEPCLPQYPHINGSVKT
UniProt P22607, whole entry, looked up: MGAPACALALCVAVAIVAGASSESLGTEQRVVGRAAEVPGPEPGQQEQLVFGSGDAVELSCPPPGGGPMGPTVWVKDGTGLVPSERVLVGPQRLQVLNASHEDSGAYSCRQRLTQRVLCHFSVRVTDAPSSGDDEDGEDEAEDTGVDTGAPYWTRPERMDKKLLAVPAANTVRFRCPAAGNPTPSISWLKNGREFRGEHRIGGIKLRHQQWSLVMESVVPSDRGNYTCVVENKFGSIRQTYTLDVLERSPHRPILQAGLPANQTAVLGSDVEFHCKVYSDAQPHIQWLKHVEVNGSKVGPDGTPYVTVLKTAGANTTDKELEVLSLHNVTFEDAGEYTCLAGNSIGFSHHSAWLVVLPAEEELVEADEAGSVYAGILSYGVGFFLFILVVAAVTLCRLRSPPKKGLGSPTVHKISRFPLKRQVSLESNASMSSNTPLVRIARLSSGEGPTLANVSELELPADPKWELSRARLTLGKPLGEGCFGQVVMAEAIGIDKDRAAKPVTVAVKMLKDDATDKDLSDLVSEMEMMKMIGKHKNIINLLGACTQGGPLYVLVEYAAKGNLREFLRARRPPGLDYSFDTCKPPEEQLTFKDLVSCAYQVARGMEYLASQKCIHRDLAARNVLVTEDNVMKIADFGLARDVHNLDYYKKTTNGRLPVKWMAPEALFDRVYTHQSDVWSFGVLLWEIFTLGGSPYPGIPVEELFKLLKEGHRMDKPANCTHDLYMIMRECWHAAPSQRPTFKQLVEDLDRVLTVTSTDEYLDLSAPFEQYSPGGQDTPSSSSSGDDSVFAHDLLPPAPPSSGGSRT
UniProt P36888, whole entry: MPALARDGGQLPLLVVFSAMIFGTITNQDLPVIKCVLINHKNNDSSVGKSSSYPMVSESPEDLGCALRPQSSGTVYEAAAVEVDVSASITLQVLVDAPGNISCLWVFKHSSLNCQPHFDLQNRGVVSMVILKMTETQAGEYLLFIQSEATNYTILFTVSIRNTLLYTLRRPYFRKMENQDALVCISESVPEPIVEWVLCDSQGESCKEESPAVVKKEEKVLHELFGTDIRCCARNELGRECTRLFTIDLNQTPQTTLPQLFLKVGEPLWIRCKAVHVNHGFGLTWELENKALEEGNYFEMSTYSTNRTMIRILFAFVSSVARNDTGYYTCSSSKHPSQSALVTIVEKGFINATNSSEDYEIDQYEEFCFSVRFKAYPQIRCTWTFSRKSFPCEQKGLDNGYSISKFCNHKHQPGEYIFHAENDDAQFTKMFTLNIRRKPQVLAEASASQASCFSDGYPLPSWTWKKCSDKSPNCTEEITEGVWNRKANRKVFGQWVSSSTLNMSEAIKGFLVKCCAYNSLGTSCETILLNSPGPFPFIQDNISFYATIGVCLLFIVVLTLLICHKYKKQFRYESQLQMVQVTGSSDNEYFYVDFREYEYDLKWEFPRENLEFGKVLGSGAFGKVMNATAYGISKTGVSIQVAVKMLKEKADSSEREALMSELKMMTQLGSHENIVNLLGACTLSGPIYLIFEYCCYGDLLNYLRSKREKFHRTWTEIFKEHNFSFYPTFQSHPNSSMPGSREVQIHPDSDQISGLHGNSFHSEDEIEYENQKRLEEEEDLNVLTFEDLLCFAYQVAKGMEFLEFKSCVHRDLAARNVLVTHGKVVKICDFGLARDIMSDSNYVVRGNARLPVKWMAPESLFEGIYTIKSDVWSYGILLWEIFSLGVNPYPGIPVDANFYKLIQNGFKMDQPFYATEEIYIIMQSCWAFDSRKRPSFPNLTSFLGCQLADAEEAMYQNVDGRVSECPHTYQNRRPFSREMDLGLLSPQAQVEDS
UniProt P49840: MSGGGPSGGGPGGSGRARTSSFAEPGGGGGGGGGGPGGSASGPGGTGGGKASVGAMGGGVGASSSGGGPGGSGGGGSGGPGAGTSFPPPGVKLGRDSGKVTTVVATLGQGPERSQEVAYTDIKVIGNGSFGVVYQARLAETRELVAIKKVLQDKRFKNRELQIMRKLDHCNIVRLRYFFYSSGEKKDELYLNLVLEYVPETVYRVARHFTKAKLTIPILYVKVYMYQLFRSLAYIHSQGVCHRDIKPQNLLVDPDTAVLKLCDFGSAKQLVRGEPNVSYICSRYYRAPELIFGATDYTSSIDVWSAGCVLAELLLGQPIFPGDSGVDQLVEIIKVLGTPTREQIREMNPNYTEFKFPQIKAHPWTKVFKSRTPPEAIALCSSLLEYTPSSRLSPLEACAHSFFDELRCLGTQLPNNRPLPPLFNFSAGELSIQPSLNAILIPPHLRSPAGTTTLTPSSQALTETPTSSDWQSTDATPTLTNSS
UniProt P14616: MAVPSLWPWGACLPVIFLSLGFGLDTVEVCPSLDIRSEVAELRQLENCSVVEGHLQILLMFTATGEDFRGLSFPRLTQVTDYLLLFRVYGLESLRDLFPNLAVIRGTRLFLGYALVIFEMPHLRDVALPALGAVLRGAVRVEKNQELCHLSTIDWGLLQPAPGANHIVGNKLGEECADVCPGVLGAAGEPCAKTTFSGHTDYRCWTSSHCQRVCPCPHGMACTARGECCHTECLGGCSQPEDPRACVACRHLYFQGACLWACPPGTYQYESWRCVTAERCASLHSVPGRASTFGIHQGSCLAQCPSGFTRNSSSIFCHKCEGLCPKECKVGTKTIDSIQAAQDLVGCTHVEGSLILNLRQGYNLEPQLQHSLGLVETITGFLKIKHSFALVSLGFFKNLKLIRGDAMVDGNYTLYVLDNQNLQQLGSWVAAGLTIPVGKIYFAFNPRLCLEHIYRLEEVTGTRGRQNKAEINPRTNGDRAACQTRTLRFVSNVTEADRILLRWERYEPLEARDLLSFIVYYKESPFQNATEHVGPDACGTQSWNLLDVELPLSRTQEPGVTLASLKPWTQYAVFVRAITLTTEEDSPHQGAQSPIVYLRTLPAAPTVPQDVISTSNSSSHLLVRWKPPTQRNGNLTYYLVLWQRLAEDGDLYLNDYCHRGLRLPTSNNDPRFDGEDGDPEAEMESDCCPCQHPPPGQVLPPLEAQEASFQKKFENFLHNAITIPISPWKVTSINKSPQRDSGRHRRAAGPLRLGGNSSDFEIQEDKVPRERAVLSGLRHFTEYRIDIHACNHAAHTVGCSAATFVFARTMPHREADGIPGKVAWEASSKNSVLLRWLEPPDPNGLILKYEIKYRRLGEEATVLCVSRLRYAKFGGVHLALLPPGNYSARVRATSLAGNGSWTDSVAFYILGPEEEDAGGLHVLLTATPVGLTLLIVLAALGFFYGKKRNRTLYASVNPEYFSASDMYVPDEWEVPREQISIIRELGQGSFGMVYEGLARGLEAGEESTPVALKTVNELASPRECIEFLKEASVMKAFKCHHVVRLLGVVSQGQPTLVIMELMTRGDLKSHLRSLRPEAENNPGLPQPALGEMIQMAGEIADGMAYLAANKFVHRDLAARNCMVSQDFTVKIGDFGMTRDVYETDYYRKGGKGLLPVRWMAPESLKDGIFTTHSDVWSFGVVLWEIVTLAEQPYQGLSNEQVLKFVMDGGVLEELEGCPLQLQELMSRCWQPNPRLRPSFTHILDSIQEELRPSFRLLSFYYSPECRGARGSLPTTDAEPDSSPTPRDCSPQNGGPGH

Assays:
Experiment in all cases: kinase-Nluc reporter destabilization hit call (1 = scored as downregulated) (binary); higher = compound decreases kinase abundance
Settings in all cases: K562; 2-18 h
[1] = biological target: EGFR (UniProt P00533)
[2] = biological target: EGFR_G719S (UniProt P00533)
[3] = biological target: EGFR_G719S_T790M (UniProt P00533)
[4] = biological target: EGFR_L718V (UniProt P00533)
[5] = biological target: EGFR_L858R (UniProt P00533)
[6] = biological target: EGFR_L861Q (UniProt P00533)
[7] = biological target: EGFR_T790M (UniProt P00533)
[8] = biological target: EPHA2 (UniProt P29317)
[9] = biological target: ERBB3 (UniProt P21860)
[10] = biological target: ERBB4_R711C (clone: ERBB4_mut) (UniProt Q15303)
[11] = biological target: ERN1 (UniProt O75460)
[12] = biological target: FGFR1 (UniProt P11362)
[13] = biological target: FGFR2 (UniProt P21802)
[14] = biological target: FGFR3 (UniProt P22607)
[15] = biological target: FGR (UniProt P09769)
[16] = biological target: FLT3 (UniProt P36888)
[17] = biological target: FYN (UniProt P06241)
[18] = biological target: GSK3A (UniProt P49840)
[19] = biological target: HER2 (UniProt P04626)
[20] = biological target: INSRR (UniProt P14616)

Measured: kinase-Nluc reporter destabilization hit call

CN1CC[C@@H](c2c(O)cc(O)c3c(=O)cc(-c4ccc(C(F)(F)F)cc4Cl)oc23)[C@@H]1CO [Voruciclib (hydrochloride)] (10 µM)
inactive: [1] 0 | [2] 0 | [3] 0 | [4] 0 | [5] 0 | [6] 0 | [7] 0 | [8] 0 | [9] 0 | [10] 0 | [11] 0 | [12] 0 | [13] 0 | [14] 0 | [15] 0 | [16] 0 | [17] 0 | [18] 0 | [19] 0 | [20] 0

CC(C)(C)n1nc(Cc2ccccc2O)c2c(N)ncnc21 (10 µM)
inactive: [1] 0 | [2] 0 | [3] 0 | [4] 0 | [5] 0 | [6] 0 | [7] 0 | [8] 0 | [9] 0 | [10] 0 | [11] 0 | [12] 0 | [13] 0 | [14] 0 | [15] 0 | [16] 0 | [17] 0 | [18] 0 | [19] 0 | [20] 0

O=C1NC(=O)C(c2cnc3ccccn23)=C1c1cn2c3c(cc(F)cc13)CNCC2 [GSK-3 inhibitor 1] (2.5 µM)
inactive: [1] 0 | [2] 0 | [3] 0 | [4] 0 | [5] 0 | [6] 0 | [7] 0 | [8] 0 | [9] 0 | [10] 0 | [11] 0 | [12] 0 | [13] 0 | [14] 0 | [15] 0 | [16] 0 | [17] 0 | [18] 0 | [19] 0 | [20] 0

Oc1cc(O)c2c(c1)OC1(c3ccc(O)c(O)c3)Oc3cc(O)c4c(c3C2C1O)OC(c1ccc(O)c(O)c1)C(O)C4 (stereo not given) [Procyanidin A1] (10 µM)
inactive: [1] 0 | [2] 0 | [3] 0 | [4] 0 | [5] 0 | [6] 0 | [7] 0 | [8] 0 | [9] 0 | [10] 0 | [11] 0 | [12] 0 | [13] 0 | [14] 0 | [15] 0 | [16] 0 | [17] 0 | [18] 0 | [19] 0 | [20] 0

Cc1ncc(NC(=O)NC2c3ccccc3-c3ccccc32)c(-c2ccccc2)n1 (10 µM)
inactive: [1] 0 | [2] 0 | [3] 0 | [4] 0 | [5] 0 | [6] 0 | [7] 0 | [8] 0 | [9] 0 | [10] 0 | [11] 0 | [12] 0 | [13] 0 | [14] 0 | [15] 0 | [16] 0 | [17] 0 | [18] 0 | [19] 0 | [20] 0

3 compounds out of the list, sorted by molecular weight, ascending.
CC(C)(C)n1nc(Cc2ccccc2O)c2c(N)ncnc21 (10 µM)
inactive: [1] 0 | [2] 0 | [3] 0 | [4] 0 | [5] 0 | [6] 0 | [7] 0 | [8] 0 | [9] 0 | [10] 0 | [11] 0 | [12] 0 | [13] 0 | [14] 0 | [15] 0 | [16] 0 | [17] 0 | [18] 0 | [19] 0 | [20] 0

Cc1ncc(NC(=O)NC2c3ccccc3-c3ccccc32)c(-c2ccccc2)n1 (10 µM)
inactive: [1] 0 | [2] 0 | [3] 0 | [4] 0 | [5] 0 | [6] 0 | [7] 0 | [8] 0 | [9] 0 | [10] 0 | [11] 0 | [12] 0 | [13] 0 | [14] 0 | [15] 0 | [16] 0 | [17] 0 | [18] 0 | [19] 0 | [20] 0

Oc1cc(O)c2c(c1)OC1(c3ccc(O)c(O)c3)Oc3cc(O)c4c(c3C2C1O)OC(c1ccc(O)c(O)c1)C(O)C4 (stereo not given) [Procyanidin A1] (10 µM)
inactive: [1] 0 | [2] 0 | [3] 0 | [4] 0 | [5] 0 | [6] 0 | [7] 0 | [8] 0 | [9] 0 | [10] 0 | [11] 0 | [12] 0 | [13] 0 | [14] 0 | [15] 0 | [16] 0 | [17] 0 | [18] 0 | [19] 0 | [20] 0

(next part)

COc1ccc2cc3[n+](cc2c1OC)CCc1cc(O)c(O)cc1-3 [Demethyleneberberine] (10 µM)
inactive: [1] 0 | [2] 0 | [3] 0 | [4] 0 | [5] 0 | [6] 0 | [7] 0 | [8] 0 | [9] 0 | [10] 0 | [11] 0 | [12] 0 | [13] 0 | [14] 0 | [15] 0 | [16] 0 | [17] 0 | [18] 0 | [19] 0 | [20] 0

COc1ccccc1C(=O)/C=C/c1ccccc1C(=O)O (10 µM)
inactive: [1] 0 | [2] 0 | [3] 0 | [4] 0 | [5] 0 | [6] 0 | [7] 0 | [8] 0 | [9] 0 | [10] 0 | [11] 0 | [12] 0 | [13] 0 | [14] 0 | [15] 0 | [16] 0 | [17] 0 | [18] 0 | [19] 0 | [20] 0

Cc1cnc(-c2ccc(-c3ccc(NC(=O)Nc4cccc(C(F)(F)F)c4)cc3F)c3c2C(=O)NC3)[nH]1 (10 µM)
inactive: [1] 0 | [2] 0 | [3] 0 | [4] 0 | [5] 0 | [6] 0 | [7] 0 | [8] 0 | [9] 0 | [10] 0 | [11] 0 | [12] 0 | [13] 0 | [14] 0 | [15] 0 | [16] 0 | [17] 0 | [18] 0 | [19] 0 | [20] 0

CC(C)CCNC(=O)c1ccc2c(c1)nc(Nc1n[nH]c3ccc(-c4ccccc4OC(F)(F)F)cc13)n2C1CCC(O)CC1 (stereo not drawn) [IRAK inhibitor 4 (trans)] (10 µM)
inactive: [1] 0 | [2] 0 | [3] 0 | [4] 0 | [5] 0 | [6] 0 | [7] 0 | [8] 0 | [9] 0 | [10] 0 | [11] 0 | [12] 0 | [13] 0 | [14] 0 | [15] 0 | [16] 0 | [17] 0 | [18] 0 | [19] 0 | [20] 0

COc1ncccc1-c1cnn2ccc(N3CCN(C(=O)OC(C)C)CC3)nc12 (10 µM)
inactive: [1] 0 | [2] 0 | [3] 0 | [4] 0 | [5] 0 | [6] 0 | [7] 0 | [8] 0 | [9] 0 | [10] 0 | [11] 0 | [12] 0 | [13] 0 | [14] 0 | [15] 0 | [16] 0 | [17] 0 | [18] 0 | [19] 0 | [20] 0

O=C(O)c1cc(N(Cc2ccccc2O)Cc2ccccc2O)ccc1O [Lavendustin B] (10 µM)
inactive: [1] 0 | [2] 0 | [3] 0 | [4] 0 | [5] 0 | [6] 0 | [7] 0 | [8] 0 | [9] 0 | [10] 0 | [11] 0 | [12] 0 | [13] 0 | [14] 0 | [15] 0 | [16] 0 | [17] 0 | [18] 0 | [19] 0 | [20] 0

FC(F)(F)c1ccc(/C=C/c2nc(COc3ccc(CCCCn4ccnn4)cc3)co2)cc1 [Mubritinib] (10 µM)
inactive: [1] 0 | [2] 0 | [3] 0 | [4] 0 | [5] 0 | [6] 0 | [7] 0 | [8] 0 | [9] 0 | [10] 0 | [11] 0 | [12] 0 | [13] 0 | [14] 0 | [15] 0 | [16] 0 | [17] 0 | [18] 0 | [19] 0 | [20] 0

C[C@H](NC(=O)[C@H]1NCC[C@@H]1O)c1ccc(-c2noc(CCC3CCCC3)n2)cc1 (10 µM)
inactive: [1] 0 | [2] 0 | [3] 0 | [4] 0 | [5] 0 | [6] 0 | [7] 0 | [8] 0 | [9] 0 | [10] 0 | [11] 0 | [12] 0 | [13] 0 | [14] 0 | [15] 0 | [16] 0 | [17] 0 | [18] 0 | [19] 0 | [20] 0

NC(=O)c1cnc2[nH]ccc2c1N[C@@H]1[C@@H]2CC3C[C@H]1C[C@@](O)(C3)C2 [Peficitinib] (10 µM)
inactive: [1] 0 | [2] 0 | [3] 0 | [4] 0 | [5] 0 | [6] 0 | [7] 0 | [8] 0 | [9] 0 | [10] 0 | [11] 0 | [12] 0 | [13] 0 | [14] 0 | [15] 0 | [16] 0 | [17] 0 | [18] 0 | [19] 0 | [20] 0

CNc1nc(Nc2cn(C(C)(C)C#N)nc2C)ncc1C(F)(F)F (10 µM)
inactive: [1] 0 | [2] 0 | [3] 0 | [4] 0 | [5] 0 | [6] 0 | [7] 0 | [8] 0 | [9] 0 | [10] 0 | [11] 0 | [12] 0 | [13] 0 | [14] 0 | [15] 0 | [16] 0 | [17] 0 | [18] 0 | [19] 0 | [20] 0

COc1ccc(N=Nc2c(N)n[nH]c2N)cc1 (10 µM)
inactive: [1] 0 | [2] 0 | [3] 0 | [4] 0 | [5] 0 | [6] 0 | [7] 0 | [8] 0 | [9] 0 | [10] 0 | [11] 0 | [12] 0 | [13] 0 | [14] 0 | [15] 0 | [16] 0 | [17] 0 | [18] 0 | [19] 0 | [20] 0

CC(=O)N1CCC(c2cc(-c3ccc(NC(=O)c4cccn(-c5ccc(F)cc5)c4=O)cc3F)c3c(N)ncnn23)CC1 (0.5 µM)
inactive: [1] 0 | [2] 0 | [3] 0 | [4] 0 | [5] 0 | [6] 0 | [7] 0 | [8] 0 | [9] 0 | [10] 0 | [11] 0 | [12] 0 | [13] 0 | [14] 0 | [15] 0 | [16] 0 | [17] 0 | [18] 0 | [19] 0 | [20] 0
